{
  "sequences": {"note": "Protein sequences, listed by entry. Tags and fused reporters are not part of them.", "UniProt Q9NQB0, whole entry": "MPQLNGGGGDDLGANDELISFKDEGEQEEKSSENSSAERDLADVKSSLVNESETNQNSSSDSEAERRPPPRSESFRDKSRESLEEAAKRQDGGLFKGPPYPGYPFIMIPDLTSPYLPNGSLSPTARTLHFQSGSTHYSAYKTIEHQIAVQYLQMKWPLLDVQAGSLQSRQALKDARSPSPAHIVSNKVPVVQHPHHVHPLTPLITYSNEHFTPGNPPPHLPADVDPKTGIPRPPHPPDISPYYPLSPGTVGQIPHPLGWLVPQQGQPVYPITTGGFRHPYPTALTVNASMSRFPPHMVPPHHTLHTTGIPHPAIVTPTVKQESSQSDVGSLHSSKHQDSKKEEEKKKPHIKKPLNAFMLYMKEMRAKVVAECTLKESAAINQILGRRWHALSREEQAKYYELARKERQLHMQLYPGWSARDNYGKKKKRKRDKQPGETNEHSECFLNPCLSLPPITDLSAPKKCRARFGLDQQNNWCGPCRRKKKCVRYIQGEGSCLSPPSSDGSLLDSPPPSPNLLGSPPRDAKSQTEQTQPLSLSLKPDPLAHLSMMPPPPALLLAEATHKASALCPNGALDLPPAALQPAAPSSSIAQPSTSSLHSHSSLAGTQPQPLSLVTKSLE"},
  "source": "patent US20250152677",
  "molecular_target": "TCF-4 (TCF7L2) (Homo sapiens) (UniProt Q9NQB0)",
  "test": "binding assay",
  "conditions": "CITED public ChIP-seq GSM782122, HepG2, chr14:101,283,029-101,284,356, protein in cells, protein details: endogenous",
  "note": "The exact form of at least one protein or probe is not confirmed. At least one result comes from cells or an extract, where the contact may be indirect.",
  "data": [
    {"sequence": "ATTGCTTGAGCCCAGGAGTTTGAGGCTGCAATGAACCATGATTGCACCACTGTACTCCAGCCTGGGCAACAAAGTGAGATCTCGTCCCAAAAAAAGATAAATAAAAAGAAAATAGTCTGTTTTAGTCTGTATTCAGAGCAAGCCTGTGGCATGAATATCAACTTTCCTGTTTTTGCAGGGGGGAAACCGAGGCCTGGCAGGGCGAAGTGGGCAGGACCCTTCTCAAAGGGCCAGGGTGCTAGTGGCCACTGTCCTTCCCCCACCACCTCCACGCCCCCATCCCCCCACAGTTCACGACTGCAAAGGCAGCTTTAGGTTGGGAGCTGGTGGAGCAAAAAGGCCGTTCAAAGGCAGCCTTCGTTTGCTTTTCCTTATCATCACATGTGCAAGGGCAGCTCCGTTTACCTAGAGGCAGGCGTCTTTGAGCTCATCCTTTCCGCAAACACCTAAAGGGTATGTTGAACATTTGAGCCCCTGTCTCAGAGGGCGCAGCGTTTGCACAACATAAGCCCTGGCGGCTCGGTAGACGGGTATGGGGGGTAGACTCAGGTTTCTGGATGAAGCACTGAGAGCCAAGGTGACCTGCGGTGTTCCGGGATGACCTTTGGTGACCTTCGGTCCTGTCCAGTGACCTGGGGTGGTGAAGTTACCCCAAATGGGAGGAAATGAACTCTGGGTGGGCGAAGGCTGCAGGACGTGTTGGCATGATGGCTGTAGAAAGTGCACACCAGGGCTGGTGTGGAGGGCGCCTCGGCTGCTCTGAGAATCTTCCACTACCCCGGCCTGGGATTCCCAGGAAAGGCTGGTGGTGGAGGCCAGAGAGGCTCA (double strand) [human beta-catenin/TCF-4 binding site upstream of MEG3]", "values": [
      {"measurement": "binding result", "result": "binds"}
    ]}
  ]
}
